Literature values in patent US7026313B2, “2-thia-1,6,8-triaza-naphthalene-2,2-dioxides are kinase inhibitors” (Warner-Lambert Company, priority 2002, dated 2006).
At least one structure is not confirmed: it was looked up by name or label, or the drawing left a doubt.

Tested on: herpes simplex virus (HSV)
Conditions: related art (Schang et al.); cited from earlier work

With Cn1cnc2c(NCc3ccccc3)nc(NCCO)nc21 [olomoucine] as the compound, how does the HSV replication read?
Its HSV replication is “inhibited”.
